Test results: article PMC11100904, “How short peptides can disassemble ultra-stable tau fibrils extracted from Alzheimer’s disease brain by a strain-relief mechanism” (Research Square, 2024)
These are yes or no findings as the source states them, for the method shown. Some entries that bind do so weakly or less than the wild type. Values belong to the binder of their own block, whether it stands above or below them.

The chains behind the UniProt entries cited, without tags or fusion partners. Where a name states a change or a piece, a line headed by the entry shows the natural chain unless it says otherwise. Residues count along the entry.
UniProt P10636: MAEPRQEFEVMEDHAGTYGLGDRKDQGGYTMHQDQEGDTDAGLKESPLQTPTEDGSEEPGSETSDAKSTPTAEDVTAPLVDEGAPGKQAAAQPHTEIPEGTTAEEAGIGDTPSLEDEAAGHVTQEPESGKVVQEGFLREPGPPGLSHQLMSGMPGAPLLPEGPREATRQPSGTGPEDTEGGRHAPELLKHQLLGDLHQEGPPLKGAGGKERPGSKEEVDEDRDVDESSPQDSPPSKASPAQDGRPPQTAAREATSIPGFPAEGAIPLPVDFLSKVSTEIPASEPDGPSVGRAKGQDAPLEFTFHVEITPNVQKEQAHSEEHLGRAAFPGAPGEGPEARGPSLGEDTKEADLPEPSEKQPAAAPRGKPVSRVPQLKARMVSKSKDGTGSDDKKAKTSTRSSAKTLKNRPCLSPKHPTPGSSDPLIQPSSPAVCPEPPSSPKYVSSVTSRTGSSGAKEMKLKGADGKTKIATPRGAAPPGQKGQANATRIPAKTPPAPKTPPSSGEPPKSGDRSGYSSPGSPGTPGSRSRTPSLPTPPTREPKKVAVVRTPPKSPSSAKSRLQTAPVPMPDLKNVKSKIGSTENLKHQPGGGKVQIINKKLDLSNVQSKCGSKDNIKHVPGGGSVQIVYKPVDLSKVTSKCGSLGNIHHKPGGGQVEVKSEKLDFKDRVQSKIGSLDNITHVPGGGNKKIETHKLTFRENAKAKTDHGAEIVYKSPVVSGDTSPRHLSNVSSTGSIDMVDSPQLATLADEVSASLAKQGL
15N,13C-labeled tau K18+ (residues Gln244-Glu380 of 4R tau): residues 561-697 of P10636

Experiments:
[1] = target: tau fibrils extracted from AD brains (AD-tau), paired helical filament (PHF) (human (endogenous in AD patient brain)) (UniProt P10636); assay: cryo-EM structure; AD-tau fibrils in 20 mM Tris-HCl pH 7.4, 100 mM NaCl pre-incubated at 37 °C with 100 μM D-TLKIVWX (X = I, S, R) for 24 hours (estimated 100:1 peptide to tau); control tau fibrils of the same donor without peptide; both purified
[2] = target: D-TLKIVWR; assay: as above
[3] = target: D-TLKIVWR; assay: X-ray fibre diffraction; 10 mM peptide in deionized water, room temperature, quiescent, three days; fibrils aligned between glass rods, dried, 100 K; both purified
[4] = target: D-TLKIVWR; assay: cryo-EM structure; fibrils of the D-peptide alone: 4 mM D-TLKIVWI shaken in deionized water at room temperature for three days; 10 mM D-TLKIVWS/R in deionized water undisturbed for three days at room temperature (D-TLKIVWR at pH 7.0); both purified
[5] = target: D-TLKIVWI; assay: cryo-EM structure; AD-tau fibrils in 20 mM Tris-HCl pH 7.4, 100 mM NaCl pre-incubated at 37 °C with 100 μM D-TLKIVWX (X = I, S, R) for 24 hours (estimated 100:1 peptide to tau); control tau fibrils of the same donor without peptide; both purified
[6] = target: D-TLKIVWI; assay: X-ray fibre diffraction; 10 mM peptide in deionized water, room temperature, quiescent, three days; fibrils aligned between glass rods, dried, 100 K; both purified
[7] = target: D-TLKIVWI; assay: cryo-EM structure; fibrils of the D-peptide alone: 4 mM D-TLKIVWI shaken in deionized water at room temperature for three days; 10 mM D-TLKIVWS/R in deionized water undisturbed for three days at room temperature (D-TLKIVWR at pH 7.0); both purified
[8] = target: 15N,13C-labeled tau K18+ (residues Gln244-Glu380 of 4R tau) (UniProt P10636); assay: NMR titration; 1H-15N HSQC, 0.1 mM 15N,13C-labeled tau K18+ in 100 mM KCl, 20 mM NaH2PO4, 1 mM TCEP, 5%/95% D2O/H2O, pH 7.0, without or with 1 mM peptide (10-fold molar excess), 25 °C; chemical shift perturbation; one concentration, changes seen over time (2.5 months at 4 °C for D-TLKIVWI); both purified
[9] = target: D-TLKIVWS; assay: cryo-EM structure; AD-tau fibrils in 20 mM Tris-HCl pH 7.4, 100 mM NaCl pre-incubated at 37 °C with 100 μM D-TLKIVWX (X = I, S, R) for 24 hours (estimated 100:1 peptide to tau); control tau fibrils of the same donor without peptide; both purified
[10] = target: D-TLKIVWS; assay: X-ray fibre diffraction; 10 mM peptide in deionized water, room temperature, quiescent, three days; fibrils aligned between glass rods, dried, 100 K; both purified
[11] = target: D-TLKIVWS; assay: cryo-EM structure; fibrils of the D-peptide alone: 4 mM D-TLKIVWI shaken in deionized water at room temperature for three days; 10 mM D-TLKIVWS/R in deionized water undisturbed for three days at room temperature (D-TLKIVWR at pH 7.0); both purified

binding [1]: binds
binding [2]: binds
binding [3]: binds
binding [4]: binds
B1: D-TLKIVWR (peptide)
peptide: TLKIVWR
modifications: all residues are D-amino acids (D-peptide)

binding [5]: binds
binding [1]: binds
binding [6]: binds
binding [7]: binds
binding [8]: binds
B2: D-TLKIVWI (peptide)
peptide: TLKIVWI
modifications: all residues are D-amino acids (D-peptide)

binding [9]: binds
binding [1]: binds
binding [10]: binds
binding [11]: binds
binding [8]: binds
B3: D-TLKIVWS (peptide)
peptide: TLKIVWS
modifications: all residues are D-amino acids (D-peptide)
